Assay results from paper PMC8910688.
No constants are given. Whether binding was seen depends on the method and setting. In cells and extracts the contact can be indirect. Some results given as binding are weak or reduced against the parent protein; the word gives no strength. Sequences can lack the tags named with a protein.

T1: GFP10-TRPC7-RLucII biosensor (human) (UniProt Q9HCX4)
T1 sequence: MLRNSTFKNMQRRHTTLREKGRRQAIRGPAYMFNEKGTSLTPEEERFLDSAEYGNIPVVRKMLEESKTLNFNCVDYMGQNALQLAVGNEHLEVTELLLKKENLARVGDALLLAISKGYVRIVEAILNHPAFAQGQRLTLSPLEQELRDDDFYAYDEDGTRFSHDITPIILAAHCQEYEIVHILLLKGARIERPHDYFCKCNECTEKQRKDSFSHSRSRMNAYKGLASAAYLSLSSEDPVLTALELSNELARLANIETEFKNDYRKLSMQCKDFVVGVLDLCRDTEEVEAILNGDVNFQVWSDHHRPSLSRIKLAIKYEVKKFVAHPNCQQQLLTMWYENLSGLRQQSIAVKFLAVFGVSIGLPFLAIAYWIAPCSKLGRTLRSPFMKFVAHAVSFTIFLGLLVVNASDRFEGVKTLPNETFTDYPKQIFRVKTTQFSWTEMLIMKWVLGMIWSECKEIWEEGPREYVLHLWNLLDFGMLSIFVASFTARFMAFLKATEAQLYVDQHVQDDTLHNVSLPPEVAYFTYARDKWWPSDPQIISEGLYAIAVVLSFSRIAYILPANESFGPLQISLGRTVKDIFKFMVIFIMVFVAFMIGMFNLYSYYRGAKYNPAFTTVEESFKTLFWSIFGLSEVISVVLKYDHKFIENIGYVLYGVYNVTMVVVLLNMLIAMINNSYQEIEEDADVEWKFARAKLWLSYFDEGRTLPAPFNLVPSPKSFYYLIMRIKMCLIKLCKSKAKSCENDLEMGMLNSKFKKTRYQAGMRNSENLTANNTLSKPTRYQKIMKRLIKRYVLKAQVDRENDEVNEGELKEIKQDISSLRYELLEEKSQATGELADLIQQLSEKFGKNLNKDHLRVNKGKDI


Biological target: T1, GFP10-TRPC7-RLucII biosensor (human)
Assay: FRET or BRET; BRET^2 in living HEK293 cells co-transfected with GFP10-TRPC7-RLucII (75 ng), Gαq-DREADD (500 ng) and increasing untagged TRPC7 WT or TRPC3 WT (0 to 500 ng); basal BRET ratio read 48 h after transfection in HBSS with 20 mM HEPES, coelenterazine 400 A 5 µM

binding | Binder
binds | TRPC3 WT (untagged) (protein, UniProt Q13507 1-921) MSTKVRKCKEQARVTFPAPEEEEDEGEDEGAEPQRRRRGWRGVNGGLEPRSAPSQREPHGYCPPPFSHGPDLSMEGSPSLRRMTVMREKGRRQAVRGPAFMFNDRGTSLTAEEERFLDAAEYGNIPVVRKMLEESKTLNVNCVDYMGQNALQLAVGNEHLEVTELLLKKENLARIGDALLLAISKGYVRIVEAILNHPGFAASKRLTLSPCEQELQDDDFYAYDEDGTRFSPDITPIILAAHCQKYEVVHMLLMKGARIERPHDYFCKCGDCMEKQRHDSFSHSRSRINAYKGLASPAYLSLSSEDPVLTALELSNELAKLANIEKEFKNDYRKLSMQCKDFVVGVLDLCRDSEEVEAILNGDLESAEPLEVHRHKASLSRVKLAIKYEVKKFVAHPNCQQQLLTIWYENLSGLREQTIAIKCLVVLVVALGLPFLAIGYWIAPCSRLGKILRSPFMKFVAHAASFIIFLGLLVFNASDRFEGITTLPNITVTDYPKQIFRVKTTQFTWTEMLIMVWVLGMMWSECKELWLEGPREYILQLWNVLDFGMLSIFIAAFTARFLAFLQATKAQQYVDSYVQESDLSEVTLPPEIQYFTYARDKWLPSDPQIISEGLYAIAVVLSFSRIAYILPANESFGPLQISLGRTVKDIFKFMVLFIMVFFAFMIGMFILYSYYLGAKVNAAFTTVEESFKTLFWSIFGLSEVTSVVLKYDHKFIENIGYVLYGIYNVTMVVVLLNMLIAMINSSYQEIEDDSDVEWKFARSKLWLSYFDDGKTLPPPFSLVPSPKSFVYFIMRIVNFPKCRRRRLQKDIEMGMGNSKSRLNLFTQSNSRVFESHSFNSILNQPTRYQQIMKRLIKRYVLKAQVDKENDEVNEGELKEIKQDISSLRYELLEDKSQATEELAILIHKLSEKLNPSMLRCE
binds | GFP10-TRPC7-RLucII biosensor (protein, UniProt Q9HCX4 1-862) MLRNSTFKNMQRRHTTLREKGRRQAIRGPAYMFNEKGTSLTPEEERFLDSAEYGNIPVVRKMLEESKTLNFNCVDYMGQNALQLAVGNEHLEVTELLLKKENLARVGDALLLAISKGYVRIVEAILNHPAFAQGQRLTLSPLEQELRDDDFYAYDEDGTRFSHDITPIILAAHCQEYEIVHILLLKGARIERPHDYFCKCNECTEKQRKDSFSHSRSRMNAYKGLASAAYLSLSSEDPVLTALELSNELARLANIETEFKNDYRKLSMQCKDFVVGVLDLCRDTEEVEAILNGDVNFQVWSDHHRPSLSRIKLAIKYEVKKFVAHPNCQQQLLTMWYENLSGLRQQSIAVKFLAVFGVSIGLPFLAIAYWIAPCSKLGRTLRSPFMKFVAHAVSFTIFLGLLVVNASDRFEGVKTLPNETFTDYPKQIFRVKTTQFSWTEMLIMKWVLGMIWSECKEIWEEGPREYVLHLWNLLDFGMLSIFVASFTARFMAFLKATEAQLYVDQHVQDDTLHNVSLPPEVAYFTYARDKWWPSDPQIISEGLYAIAVVLSFSRIAYILPANESFGPLQISLGRTVKDIFKFMVIFIMVFVAFMIGMFNLYSYYRGAKYNPAFTTVEESFKTLFWSIFGLSEVISVVLKYDHKFIENIGYVLYGVYNVTMVVVLLNMLIAMINNSYQEIEEDADVEWKFARAKLWLSYFDEGRTLPAPFNLVPSPKSFYYLIMRIKMCLIKLCKSKAKSCENDLEMGMLNSKFKKTRYQAGMRNSENLTANNTLSKPTRYQKIMKRLIKRYVLKAQVDRENDEVNEGELKEIKQDISSLRYELLEEKSQATGELADLIQQLSEKFGKNLNKDHLRVNKGKDI
binds | TRPC7 WT (untagged) (protein, UniProt Q9HCX4 1-862) MLRNSTFKNMQRRHTTLREKGRRQAIRGPAYMFNEKGTSLTPEEERFLDSAEYGNIPVVRKMLEESKTLNFNCVDYMGQNALQLAVGNEHLEVTELLLKKENLARVGDALLLAISKGYVRIVEAILNHPAFAQGQRLTLSPLEQELRDDDFYAYDEDGTRFSHDITPIILAAHCQEYEIVHILLLKGARIERPHDYFCKCNECTEKQRKDSFSHSRSRMNAYKGLASAAYLSLSSEDPVLTALELSNELARLANIETEFKNDYRKLSMQCKDFVVGVLDLCRDTEEVEAILNGDVNFQVWSDHHRPSLSRIKLAIKYEVKKFVAHPNCQQQLLTMWYENLSGLRQQSIAVKFLAVFGVSIGLPFLAIAYWIAPCSKLGRTLRSPFMKFVAHAVSFTIFLGLLVVNASDRFEGVKTLPNETFTDYPKQIFRVKTTQFSWTEMLIMKWVLGMIWSECKEIWEEGPREYVLHLWNLLDFGMLSIFVASFTARFMAFLKATEAQLYVDQHVQDDTLHNVSLPPEVAYFTYARDKWWPSDPQIISEGLYAIAVVLSFSRIAYILPANESFGPLQISLGRTVKDIFKFMVIFIMVFVAFMIGMFNLYSYYRGAKYNPAFTTVEESFKTLFWSIFGLSEVISVVLKYDHKFIENIGYVLYGVYNVTMVVVLLNMLIAMINNSYQEIEEDADVEWKFARAKLWLSYFDEGRTLPAPFNLVPSPKSFYYLIMRIKMCLIKLCKSKAKSCENDLEMGMLNSKFKKTRYQAGMRNSENLTANNTLSKPTRYQKIMKRLIKRYVLKAQVDRENDEVNEGELKEIKQDISSLRYELLEEKSQATGELADLIQQLSEKFGKNLNKDHLRVNKGKDI
